The record followed here is article PMC12866828.

Chains of the proteins cited; added tags and fusions are not shown. Residues count along the entry.
UniProt P50592: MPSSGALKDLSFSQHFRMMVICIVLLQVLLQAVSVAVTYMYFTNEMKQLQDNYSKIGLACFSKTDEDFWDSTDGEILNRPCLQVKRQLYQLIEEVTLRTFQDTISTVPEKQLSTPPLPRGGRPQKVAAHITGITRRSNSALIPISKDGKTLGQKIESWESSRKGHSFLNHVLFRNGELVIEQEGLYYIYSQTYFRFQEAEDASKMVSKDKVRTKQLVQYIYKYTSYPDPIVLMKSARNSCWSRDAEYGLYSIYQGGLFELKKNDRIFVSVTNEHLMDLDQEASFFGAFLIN
UniProt O70472, residues 21-1877: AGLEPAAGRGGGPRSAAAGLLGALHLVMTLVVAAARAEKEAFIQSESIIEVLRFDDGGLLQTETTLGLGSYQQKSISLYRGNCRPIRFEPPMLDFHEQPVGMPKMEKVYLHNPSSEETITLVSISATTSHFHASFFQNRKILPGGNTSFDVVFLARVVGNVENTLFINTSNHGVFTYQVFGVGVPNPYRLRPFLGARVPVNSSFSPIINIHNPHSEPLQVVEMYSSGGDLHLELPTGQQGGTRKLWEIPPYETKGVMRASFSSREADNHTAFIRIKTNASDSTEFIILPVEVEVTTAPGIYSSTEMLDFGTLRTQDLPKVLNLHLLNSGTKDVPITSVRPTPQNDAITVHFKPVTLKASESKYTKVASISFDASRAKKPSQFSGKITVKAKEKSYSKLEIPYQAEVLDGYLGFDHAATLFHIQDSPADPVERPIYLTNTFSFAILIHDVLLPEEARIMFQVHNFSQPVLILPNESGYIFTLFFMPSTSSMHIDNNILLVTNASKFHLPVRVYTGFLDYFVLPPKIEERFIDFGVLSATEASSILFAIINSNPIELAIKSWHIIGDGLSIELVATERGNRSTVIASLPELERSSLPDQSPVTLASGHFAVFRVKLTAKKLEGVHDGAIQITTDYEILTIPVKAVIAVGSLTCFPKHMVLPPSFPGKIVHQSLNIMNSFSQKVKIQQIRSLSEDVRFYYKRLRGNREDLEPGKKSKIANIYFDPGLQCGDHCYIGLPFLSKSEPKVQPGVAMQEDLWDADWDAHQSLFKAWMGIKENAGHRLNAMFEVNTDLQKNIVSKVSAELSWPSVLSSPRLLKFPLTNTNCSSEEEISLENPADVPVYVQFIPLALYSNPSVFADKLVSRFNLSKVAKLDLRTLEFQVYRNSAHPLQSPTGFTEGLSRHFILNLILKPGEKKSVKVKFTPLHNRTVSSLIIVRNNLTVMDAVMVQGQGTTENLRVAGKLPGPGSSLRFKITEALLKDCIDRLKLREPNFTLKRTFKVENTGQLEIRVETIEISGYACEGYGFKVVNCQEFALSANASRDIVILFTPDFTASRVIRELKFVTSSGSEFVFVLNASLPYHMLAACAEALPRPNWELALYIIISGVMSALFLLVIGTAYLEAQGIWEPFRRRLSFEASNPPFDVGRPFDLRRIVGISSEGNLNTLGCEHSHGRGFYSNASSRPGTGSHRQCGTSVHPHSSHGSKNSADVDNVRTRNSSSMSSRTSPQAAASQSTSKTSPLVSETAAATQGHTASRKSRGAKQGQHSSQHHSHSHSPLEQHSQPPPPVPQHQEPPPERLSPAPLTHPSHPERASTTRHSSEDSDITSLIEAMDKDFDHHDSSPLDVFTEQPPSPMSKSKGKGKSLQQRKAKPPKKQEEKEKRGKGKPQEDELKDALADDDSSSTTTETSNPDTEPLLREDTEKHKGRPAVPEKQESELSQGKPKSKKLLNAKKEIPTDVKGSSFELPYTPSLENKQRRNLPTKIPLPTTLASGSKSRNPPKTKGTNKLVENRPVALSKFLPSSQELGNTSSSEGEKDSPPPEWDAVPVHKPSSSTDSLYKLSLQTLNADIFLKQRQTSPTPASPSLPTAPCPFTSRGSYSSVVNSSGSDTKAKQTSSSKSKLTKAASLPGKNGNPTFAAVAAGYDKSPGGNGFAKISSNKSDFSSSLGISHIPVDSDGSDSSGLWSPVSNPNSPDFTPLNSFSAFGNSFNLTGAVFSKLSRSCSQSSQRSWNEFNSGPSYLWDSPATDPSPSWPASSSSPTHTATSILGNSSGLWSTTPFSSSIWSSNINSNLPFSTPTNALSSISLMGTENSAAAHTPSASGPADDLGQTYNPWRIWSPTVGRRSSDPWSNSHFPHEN

These are yes or no findings as the source states them, for the method shown. In cells and extracts the contact can be indirect. A yes stands for co-enrichment or nearness to the bait. Other partners may have been found.

The target in this experiment is Tumor necrosis factor (TNF)‐related apoptosis‐inducing ligand (TRAIL) (mouse (endogenous in MLE-12)) (UniProt P50592). The experiment in a line: affinity purification with mass spectrometry; MLE-12 cell lysates immunoprecipitated with a specific antibody (for TRAIL or TMEM131) or isotype antibody, protein A/G beads, 4 °C overnight, 5 washes with NP-40 lysis buffer, LC-MS/MS.

With TMEM131 (from UniProt O70472 21-1877), the binding entry is given as “binds”.
